# Test results from the supplement of paper PMC12595434, “Development of retinoid nuclear receptor pathway antagonists through targeting aldehyde dehydrogenase 1A3” (iScience, 2025).
# By UniProt entry, the sequences of proteins in these tests, tags left out. Where a name states a change or a piece, a line headed by the entry shows the natural chain unless it says otherwise.
# UniProt Q6P3W7: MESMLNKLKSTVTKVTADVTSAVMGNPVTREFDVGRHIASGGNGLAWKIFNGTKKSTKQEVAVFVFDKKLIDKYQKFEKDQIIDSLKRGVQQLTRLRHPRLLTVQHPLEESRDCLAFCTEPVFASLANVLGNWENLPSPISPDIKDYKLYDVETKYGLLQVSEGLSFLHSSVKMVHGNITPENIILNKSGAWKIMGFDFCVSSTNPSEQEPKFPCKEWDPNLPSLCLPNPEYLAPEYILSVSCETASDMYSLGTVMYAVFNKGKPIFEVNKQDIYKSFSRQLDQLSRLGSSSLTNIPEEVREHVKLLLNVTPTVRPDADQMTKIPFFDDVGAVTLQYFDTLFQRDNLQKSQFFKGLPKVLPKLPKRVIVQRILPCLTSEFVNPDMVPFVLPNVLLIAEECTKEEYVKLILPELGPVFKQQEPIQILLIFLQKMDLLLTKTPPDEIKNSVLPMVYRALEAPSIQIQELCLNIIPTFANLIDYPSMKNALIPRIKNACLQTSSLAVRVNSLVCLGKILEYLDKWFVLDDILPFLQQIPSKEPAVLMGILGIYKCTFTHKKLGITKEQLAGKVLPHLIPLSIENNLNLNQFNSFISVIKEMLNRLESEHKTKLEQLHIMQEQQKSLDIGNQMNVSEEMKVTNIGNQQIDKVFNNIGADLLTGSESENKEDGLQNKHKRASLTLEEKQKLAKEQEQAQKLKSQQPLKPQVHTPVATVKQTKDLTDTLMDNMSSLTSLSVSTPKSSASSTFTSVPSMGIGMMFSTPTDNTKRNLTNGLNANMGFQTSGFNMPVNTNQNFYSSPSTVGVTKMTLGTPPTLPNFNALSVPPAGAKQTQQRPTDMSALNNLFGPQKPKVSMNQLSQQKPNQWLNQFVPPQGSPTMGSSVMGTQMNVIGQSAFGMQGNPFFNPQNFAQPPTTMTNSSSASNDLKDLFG
# UniProt Q5QJ74: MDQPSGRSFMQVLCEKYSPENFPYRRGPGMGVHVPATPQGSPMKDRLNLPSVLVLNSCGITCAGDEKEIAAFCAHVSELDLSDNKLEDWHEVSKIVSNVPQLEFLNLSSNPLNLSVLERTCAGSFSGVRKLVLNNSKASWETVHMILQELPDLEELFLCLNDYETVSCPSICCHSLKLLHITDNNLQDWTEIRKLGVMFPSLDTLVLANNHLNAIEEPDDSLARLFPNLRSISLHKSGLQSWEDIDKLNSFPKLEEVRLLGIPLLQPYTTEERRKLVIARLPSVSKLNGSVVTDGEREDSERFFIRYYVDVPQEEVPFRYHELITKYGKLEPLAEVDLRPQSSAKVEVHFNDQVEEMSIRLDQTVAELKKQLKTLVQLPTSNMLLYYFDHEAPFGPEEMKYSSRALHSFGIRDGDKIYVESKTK
# UniProt Q5T7W7: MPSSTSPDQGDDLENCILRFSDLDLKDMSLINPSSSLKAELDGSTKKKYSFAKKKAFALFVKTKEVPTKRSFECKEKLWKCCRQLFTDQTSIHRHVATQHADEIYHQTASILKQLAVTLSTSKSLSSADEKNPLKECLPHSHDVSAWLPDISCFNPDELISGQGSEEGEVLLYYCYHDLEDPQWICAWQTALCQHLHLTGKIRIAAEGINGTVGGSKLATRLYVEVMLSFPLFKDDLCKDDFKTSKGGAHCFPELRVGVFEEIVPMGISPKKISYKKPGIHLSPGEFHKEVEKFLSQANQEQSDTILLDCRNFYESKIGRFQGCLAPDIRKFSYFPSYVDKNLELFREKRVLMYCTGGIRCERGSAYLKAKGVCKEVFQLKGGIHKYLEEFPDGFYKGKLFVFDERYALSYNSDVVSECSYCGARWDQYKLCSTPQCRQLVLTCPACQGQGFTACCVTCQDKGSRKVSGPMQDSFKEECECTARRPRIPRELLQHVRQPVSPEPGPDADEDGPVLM
# UniProt Q5BKZ1: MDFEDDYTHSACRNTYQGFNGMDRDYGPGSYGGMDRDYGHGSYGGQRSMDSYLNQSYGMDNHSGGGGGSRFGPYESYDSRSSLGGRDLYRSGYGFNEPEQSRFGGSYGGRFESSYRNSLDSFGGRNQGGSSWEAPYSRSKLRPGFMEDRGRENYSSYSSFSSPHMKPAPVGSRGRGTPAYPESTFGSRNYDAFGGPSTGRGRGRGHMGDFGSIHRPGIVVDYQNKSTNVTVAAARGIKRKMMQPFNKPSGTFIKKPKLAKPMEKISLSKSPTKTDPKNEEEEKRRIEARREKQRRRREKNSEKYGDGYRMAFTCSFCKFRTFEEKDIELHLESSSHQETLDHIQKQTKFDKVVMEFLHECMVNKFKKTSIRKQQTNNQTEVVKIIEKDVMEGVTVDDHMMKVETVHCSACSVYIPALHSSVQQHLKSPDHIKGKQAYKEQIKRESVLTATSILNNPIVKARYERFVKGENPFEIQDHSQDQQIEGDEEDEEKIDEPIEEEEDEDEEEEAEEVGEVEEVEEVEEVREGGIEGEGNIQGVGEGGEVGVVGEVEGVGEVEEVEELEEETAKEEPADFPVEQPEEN
# UniProt Q68CP4: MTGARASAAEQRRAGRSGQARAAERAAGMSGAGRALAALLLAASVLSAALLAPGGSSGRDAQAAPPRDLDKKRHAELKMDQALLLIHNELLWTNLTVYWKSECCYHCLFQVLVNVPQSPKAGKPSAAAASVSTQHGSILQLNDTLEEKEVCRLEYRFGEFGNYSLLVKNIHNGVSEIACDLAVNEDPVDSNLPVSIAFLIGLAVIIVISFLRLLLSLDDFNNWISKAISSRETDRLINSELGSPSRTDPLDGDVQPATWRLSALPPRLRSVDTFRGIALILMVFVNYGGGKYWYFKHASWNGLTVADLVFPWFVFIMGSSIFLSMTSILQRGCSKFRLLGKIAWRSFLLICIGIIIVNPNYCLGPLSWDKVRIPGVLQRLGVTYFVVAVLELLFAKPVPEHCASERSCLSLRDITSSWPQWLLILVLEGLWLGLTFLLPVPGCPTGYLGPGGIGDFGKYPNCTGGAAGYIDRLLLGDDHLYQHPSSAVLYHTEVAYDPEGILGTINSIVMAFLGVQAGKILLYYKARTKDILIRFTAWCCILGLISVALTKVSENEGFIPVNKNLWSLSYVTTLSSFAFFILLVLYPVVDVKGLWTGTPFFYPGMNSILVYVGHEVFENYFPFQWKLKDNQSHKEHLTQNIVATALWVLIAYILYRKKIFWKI
# UniProt Q5VTB9: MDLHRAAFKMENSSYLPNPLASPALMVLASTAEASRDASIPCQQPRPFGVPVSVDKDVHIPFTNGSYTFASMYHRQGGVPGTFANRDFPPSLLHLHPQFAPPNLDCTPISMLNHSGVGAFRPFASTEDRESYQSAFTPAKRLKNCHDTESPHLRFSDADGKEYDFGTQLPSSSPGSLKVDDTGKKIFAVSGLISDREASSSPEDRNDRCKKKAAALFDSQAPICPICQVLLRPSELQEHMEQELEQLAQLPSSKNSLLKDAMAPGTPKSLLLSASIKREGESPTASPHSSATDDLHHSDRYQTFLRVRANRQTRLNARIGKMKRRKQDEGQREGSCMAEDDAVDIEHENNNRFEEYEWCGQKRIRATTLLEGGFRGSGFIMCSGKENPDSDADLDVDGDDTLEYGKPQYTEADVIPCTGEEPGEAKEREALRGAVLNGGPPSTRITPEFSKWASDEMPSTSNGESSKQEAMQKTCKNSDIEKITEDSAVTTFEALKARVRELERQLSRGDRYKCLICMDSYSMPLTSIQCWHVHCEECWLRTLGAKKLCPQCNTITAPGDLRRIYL
# UniProt Q5T440: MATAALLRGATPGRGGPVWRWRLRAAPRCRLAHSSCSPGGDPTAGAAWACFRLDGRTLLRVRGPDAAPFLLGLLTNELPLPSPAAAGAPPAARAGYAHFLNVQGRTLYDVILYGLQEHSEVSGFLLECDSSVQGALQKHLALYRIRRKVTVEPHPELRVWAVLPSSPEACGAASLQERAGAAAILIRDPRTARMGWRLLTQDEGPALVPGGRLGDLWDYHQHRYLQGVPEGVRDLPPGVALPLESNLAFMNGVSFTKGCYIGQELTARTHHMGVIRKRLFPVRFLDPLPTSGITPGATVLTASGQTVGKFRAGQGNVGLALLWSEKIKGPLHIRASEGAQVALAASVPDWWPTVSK
# UniProt Q6GMV2: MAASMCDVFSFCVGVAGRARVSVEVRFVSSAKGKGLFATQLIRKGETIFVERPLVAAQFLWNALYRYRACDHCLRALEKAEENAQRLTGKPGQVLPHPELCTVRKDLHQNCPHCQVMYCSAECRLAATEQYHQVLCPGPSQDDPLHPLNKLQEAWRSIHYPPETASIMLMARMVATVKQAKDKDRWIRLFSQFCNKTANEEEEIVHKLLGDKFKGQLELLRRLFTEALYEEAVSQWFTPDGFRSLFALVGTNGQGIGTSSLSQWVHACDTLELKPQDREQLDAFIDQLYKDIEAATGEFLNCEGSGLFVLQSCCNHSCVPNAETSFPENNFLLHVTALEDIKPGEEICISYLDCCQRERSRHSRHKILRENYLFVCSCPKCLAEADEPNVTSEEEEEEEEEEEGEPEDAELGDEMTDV
# UniProt Q5HYA8: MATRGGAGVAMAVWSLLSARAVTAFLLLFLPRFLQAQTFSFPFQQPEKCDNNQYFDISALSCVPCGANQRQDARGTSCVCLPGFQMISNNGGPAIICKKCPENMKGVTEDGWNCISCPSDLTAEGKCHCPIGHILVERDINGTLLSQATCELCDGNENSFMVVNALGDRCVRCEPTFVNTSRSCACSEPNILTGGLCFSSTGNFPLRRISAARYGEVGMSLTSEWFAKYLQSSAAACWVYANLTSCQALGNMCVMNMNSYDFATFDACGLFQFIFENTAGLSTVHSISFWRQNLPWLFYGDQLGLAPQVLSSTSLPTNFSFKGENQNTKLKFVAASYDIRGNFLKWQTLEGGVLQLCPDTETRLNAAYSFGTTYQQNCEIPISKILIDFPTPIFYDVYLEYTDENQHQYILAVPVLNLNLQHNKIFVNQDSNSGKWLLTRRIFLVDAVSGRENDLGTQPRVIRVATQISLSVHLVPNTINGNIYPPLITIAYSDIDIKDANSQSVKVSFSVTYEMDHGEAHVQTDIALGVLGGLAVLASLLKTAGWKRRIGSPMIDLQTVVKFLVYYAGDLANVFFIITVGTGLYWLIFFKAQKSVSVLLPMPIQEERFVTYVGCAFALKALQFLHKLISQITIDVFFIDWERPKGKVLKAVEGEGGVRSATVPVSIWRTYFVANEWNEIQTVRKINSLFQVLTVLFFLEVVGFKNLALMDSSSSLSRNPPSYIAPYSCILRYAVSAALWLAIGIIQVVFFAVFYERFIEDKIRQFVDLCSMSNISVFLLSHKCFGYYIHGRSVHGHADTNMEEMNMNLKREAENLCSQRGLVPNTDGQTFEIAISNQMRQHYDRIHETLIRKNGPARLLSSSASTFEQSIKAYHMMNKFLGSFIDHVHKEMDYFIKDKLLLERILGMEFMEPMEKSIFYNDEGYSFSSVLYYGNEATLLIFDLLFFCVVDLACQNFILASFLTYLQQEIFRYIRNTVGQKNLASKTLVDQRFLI
# UniProt Q5BJH2: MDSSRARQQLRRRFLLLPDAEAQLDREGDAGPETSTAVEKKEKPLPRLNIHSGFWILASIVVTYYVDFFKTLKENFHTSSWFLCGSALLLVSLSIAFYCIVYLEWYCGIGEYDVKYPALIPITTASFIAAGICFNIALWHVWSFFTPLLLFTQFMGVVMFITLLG
# UniProt Q6DN90: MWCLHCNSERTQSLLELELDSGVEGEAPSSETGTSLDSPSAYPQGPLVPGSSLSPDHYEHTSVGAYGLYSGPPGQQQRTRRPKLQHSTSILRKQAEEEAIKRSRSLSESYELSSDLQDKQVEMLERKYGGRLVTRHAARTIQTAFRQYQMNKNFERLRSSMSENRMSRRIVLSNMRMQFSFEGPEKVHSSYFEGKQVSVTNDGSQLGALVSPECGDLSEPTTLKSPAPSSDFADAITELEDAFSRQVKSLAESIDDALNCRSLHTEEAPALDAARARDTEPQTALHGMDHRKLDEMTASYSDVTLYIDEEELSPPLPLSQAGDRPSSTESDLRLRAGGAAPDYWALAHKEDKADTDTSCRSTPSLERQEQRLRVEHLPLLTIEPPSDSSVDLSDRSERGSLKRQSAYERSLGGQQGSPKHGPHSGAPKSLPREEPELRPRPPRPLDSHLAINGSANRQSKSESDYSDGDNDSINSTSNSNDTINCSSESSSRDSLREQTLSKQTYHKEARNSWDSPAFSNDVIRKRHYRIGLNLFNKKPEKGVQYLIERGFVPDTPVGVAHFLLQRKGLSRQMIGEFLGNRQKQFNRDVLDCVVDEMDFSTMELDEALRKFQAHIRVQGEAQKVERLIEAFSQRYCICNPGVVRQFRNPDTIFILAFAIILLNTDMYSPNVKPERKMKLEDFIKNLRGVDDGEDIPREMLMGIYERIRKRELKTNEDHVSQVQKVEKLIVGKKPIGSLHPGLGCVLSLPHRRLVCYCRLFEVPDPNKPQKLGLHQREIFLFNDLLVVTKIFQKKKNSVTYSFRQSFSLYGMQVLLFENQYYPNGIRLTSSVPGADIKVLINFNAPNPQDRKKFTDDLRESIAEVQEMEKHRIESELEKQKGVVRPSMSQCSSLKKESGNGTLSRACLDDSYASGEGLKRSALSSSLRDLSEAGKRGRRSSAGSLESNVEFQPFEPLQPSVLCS
# This is one part of the list. This is a noisy data set.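 Many melting curves are irregular; where none melted, Tm was taken as 64 °C.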
# Compound: CCc1cnccc1C(=O)Nc1cc2c(cc1F)NC(=O)CC2
# Test: melting temperature shift (DMSO Tm minus MBE1-treated Tm) in cellular thermal proteome profiling; higher = less thermal stabilization by MBE1 (negative = stabilized by MBE1)
# Details: A375
target,measurement,setting,value
SCYL2 (UniProt Q6P3W7),melting temperature shift,MBE1 concentration: 100 nM,-0.363 °C
same,melting temperature shift,MBE1 concentration: 1 uM,0.415 °C
TMEM214 (UniProt Q6NUQ4),melting temperature shift,MBE1 concentration: 100 nM,0.959 °C
same,melting temperature shift,MBE1 concentration: 1 uM,0.208 °C
TBCEL (UniProt Q5QJ74),melting temperature shift,MBE1 concentration: 100 nM,-0.376 °C
same,melting temperature shift,MBE1 concentration: 1 uM,-0.838 °C
DDX59 (UniProt Q5T1V6),melting temperature shift,MBE1 concentration: 100 nM,1.71 °C
same,melting temperature shift,MBE1 concentration: 1 uM,0.562 °C
TSTD2 (UniProt Q5T7W7),melting temperature shift,MBE1 concentration: 100 nM,-1.1 °C
same,melting temperature shift,MBE1 concentration: 1 uM,-0.455 °C
EDC4 (UniProt Q6P2E9),melting temperature shift,MBE1 concentration: 100 nM,-1.62 °C
same,melting temperature shift,MBE1 concentration: 1 uM,-0.795 °C
UniProt Q5FBB7,melting temperature shift,MBE1 concentration: 100 nM,-0.51 °C
same,melting temperature shift,MBE1 concentration: 1 uM,-0.083 °C
NIPBL (UniProt Q6KC79),melting temperature shift,MBE1 concentration: 100 nM,-0.192 °C
same,melting temperature shift,MBE1 concentration: 1 uM,-0.647 °C
DCAF10 (UniProt Q5QP82),melting temperature shift,MBE1 concentration: 100 nM,-0.651 °C
same,melting temperature shift,MBE1 concentration: 1 uM,-0.263 °C
CNNM4 (UniProt Q6P4Q7),melting temperature shift,MBE1 concentration: 100 nM,1.15 °C
same,melting temperature shift,MBE1 concentration: 1 uM,0.694 °C
UniProt Q58EX7,melting temperature shift,MBE1 concentration: 100 nM,-0.939 °C
same,melting temperature shift,MBE1 concentration: 1 uM,-1.7 °C
ZNF326 (UniProt Q5BKZ1),melting temperature shift,MBE1 concentration: 100 nM,-0.173 °C
same,melting temperature shift,MBE1 concentration: 1 uM,-0.218 °C
C9ORF114 (UniProt Q5T280),melting temperature shift,MBE1 concentration: 100 nM,-0.858 °C
same,melting temperature shift,MBE1 concentration: 1 uM,-0.414 °C
UniProt Q68CP4,melting temperature shift,MBE1 concentration: 100 nM,-0.19 °C
same,melting temperature shift,MBE1 concentration: 1 uM,-4.84 °C
RNF220 (UniProt Q5VTB9),melting temperature shift,MBE1 concentration: 100 nM,-0.14 °C
same,melting temperature shift,MBE1 concentration: 1 uM,-0.318 °C
ATAD3B (UniProt Q5T9A4),melting temperature shift,MBE1 concentration: 100 nM,-0.0988 °C
same,melting temperature shift,MBE1 concentration: 1 uM,-0.0988 °C
CIAPIN1 (UniProt Q6FI81),melting temperature shift,MBE1 concentration: 100 nM,0.134 °C
same,melting temperature shift,MBE1 concentration: 1 uM,0.14 °C
UniProt Q5T2N8,melting temperature shift,MBE1 concentration: 100 nM,-0.742 °C
same,melting temperature shift,MBE1 concentration: 1 uM,-0.287 °C
UniProt Q6NSI4,melting temperature shift,MBE1 concentration: 100 nM,-0.523 °C
same,melting temperature shift,MBE1 concentration: 1 uM,4.7 °C
IBA57 (UniProt Q5T440),melting temperature shift,MBE1 concentration: 100 nM,-0.443 °C
same,melting temperature shift,MBE1 concentration: 1 uM,0.226 °C
UniProt Q6NXT4,melting temperature shift,MBE1 concentration: 100 nM,-0.53 °C
same,melting temperature shift,MBE1 concentration: 1 uM,0.563 °C
DDI2 (UniProt Q5TDH0),melting temperature shift,MBE1 concentration: 100 nM,-0.832 °C
same,melting temperature shift,MBE1 concentration: 1 uM,0.0855 °C
RALGAPA1 (UniProt Q6GYQ0),melting temperature shift,MBE1 concentration: 100 nM,-1.07 °C
same,melting temperature shift,MBE1 concentration: 1 uM,-0.501 °C
SAMD9 (UniProt Q5K651),melting temperature shift,MBE1 concentration: 100 nM,-1.03 °C
same,melting temperature shift,MBE1 concentration: 1 uM,-0.179 °C
NCAPH2 (UniProt Q6IBW4),melting temperature shift,MBE1 concentration: 100 nM,-0.659 °C
same,melting temperature shift,MBE1 concentration: 1 uM,-0.358 °C
SNAP47 (UniProt Q5SQN1),melting temperature shift,MBE1 concentration: 100 nM,-0.311 °C
same,melting temperature shift,MBE1 concentration: 1 uM,0.0513 °C
SMYD5 (UniProt Q6GMV2),melting temperature shift,MBE1 concentration: 100 nM,-1.07 °C
same,melting temperature shift,MBE1 concentration: 1 uM,0.367 °C
UniProt Q5HYA8,melting temperature shift,MBE1 concentration: 100 nM,-0.389 °C
same,melting temperature shift,MBE1 concentration: 1 uM,-0.107 °C
PDE4DIP (UniProt Q5VU43),melting temperature shift,MBE1 concentration: 100 nM,0.287 °C
same,melting temperature shift,MBE1 concentration: 1 uM,0.55 °C
UniProt Q68DY1,melting temperature shift,MBE1 concentration: 100 nM,-1.19 °C
same,melting temperature shift,MBE1 concentration: 1 uM,0.11 °C
CDC73 (UniProt Q6P1J9),melting temperature shift,MBE1 concentration: 100 nM,-0.102 °C
same,melting temperature shift,MBE1 concentration: 1 uM,-0.192 °C
RNF213 (UniProt Q63HN8),melting temperature shift,MBE1 concentration: 100 nM,-0.518 °C
same,melting temperature shift,MBE1 concentration: 1 uM,0.0941 °C
UniProt Q5BJH2,melting temperature shift,MBE1 concentration: 100 nM,-3.86 °C
same,melting temperature shift,MBE1 concentration: 1 uM,2.34 °C
UniProt Q5SW96,melting temperature shift,MBE1 concentration: 100 nM,-0.48 °C
same,melting temperature shift,MBE1 concentration: 1 uM,-0.325 °C
DNTTIP2 (UniProt Q5QJE6),melting temperature shift,MBE1 concentration: 100 nM,0.0427 °C
same,melting temperature shift,MBE1 concentration: 1 uM,0.275 °C
UniProt Q5SRI9,melting temperature shift,MBE1 concentration: 100 nM,-1.9 °C
same,melting temperature shift,MBE1 concentration: 1 uM,0.733 °C
ZCCHC11 (UniProt Q5TAX3),melting temperature shift,MBE1 concentration: 100 nM,-0.645 °C
same,melting temperature shift,MBE1 concentration: 1 uM,0.216 °C
DUS1L (UniProt Q6P1R4),melting temperature shift,MBE1 concentration: 100 nM,-0.391 °C
same,melting temperature shift,MBE1 concentration: 1 uM,0.288 °C
RAB12 (UniProt Q6IQ22),melting temperature shift,MBE1 concentration: 100 nM,-0.833 °C
same,melting temperature shift,MBE1 concentration: 1 uM,1.35 °C
UniProt Q6NSJ2,melting temperature shift,MBE1 concentration: 100 nM,-0.231 °C
same,melting temperature shift,MBE1 concentration: 1 uM,-0.945 °C
MAST2 (UniProt Q6P0Q8),melting temperature shift,MBE1 concentration: 100 nM,-1.59 °C
same,melting temperature shift,MBE1 concentration: 1 uM,-1.96 °C
IQSEC1 (UniProt Q6DN90),melting temperature shift,MBE1 concentration: 100 nM,-1.66 °C
same,melting temperature shift,MBE1 concentration: 1 uM,-1.25 °C
UniProt Q5TCQ9,melting temperature shift,MBE1 concentration: 100 nM,1.99 °C
same,melting temperature shift,MBE1 concentration: 1 uM,0.958 °C
HIBCH (UniProt Q6NVY1),melting temperature shift,MBE1 concentration: 100 nM,0.91 °C
same,melting temperature shift,MBE1 concentration: 1 uM,0.122 °C
RINT1 (UniProt Q6NUQ1),melting temperature shift,MBE1 concentration: 100 nM,-1.04 °C
same,melting temperature shift,MBE1 concentration: 1 uM,-0.536 °C
MRPL14 (UniProt Q6P1L8),melting temperature shift,MBE1 concentration: 100 nM,0.806 °C
same,melting temperature shift,MBE1 concentration: 1 uM,1.03 °C
TWF2 (UniProt Q6IBS0),melting temperature shift,MBE1 concentration: 100 nM,-0.845 °C
same,melting temperature shift,MBE1 concentration: 1 uM,0.798 °C
UniProt Q68D85,melting temperature shift,MBE1 concentration: 100 nM,-3.02 °C
same,melting temperature shift,MBE1 concentration: 1 uM,-2.69 °C
MRPL2 (UniProt Q5T653),melting temperature shift,MBE1 concentration: 100 nM,1.27 °C
same,melting temperature shift,MBE1 concentration: 1 uM,1.32 °C
SPECC1L (UniProt Q69YQ0),melting temperature shift,MBE1 concentration: 100 nM,0.244 °C
same,melting temperature shift,MBE1 concentration: 1 uM,-0.299 °C

# At a glance, part of the list above:
target,measurement,setting,value
UniProt Q5TCQ9,melting temperature shift,MBE1 concentration: 100 nM,1.99 °C
same,melting temperature shift,MBE1 concentration: 1 uM,0.958 °C
HIBCH (UniProt Q6NVY1),melting temperature shift,MBE1 concentration: 100 nM,0.91 °C
same,melting temperature shift,MBE1 concentration: 1 uM,0.122 °C
RINT1 (UniProt Q6NUQ1),melting temperature shift,MBE1 concentration: 100 nM,-1.04 °C

# 3 entries from above, with bars between the fields.
target | measurement | setting | value
CIAPIN1 (UniProt Q6FI81) | melting temperature shift | MBE1 concentration: 100 nM | 0.134 °C
same | melting temperature shift | MBE1 concentration: 1 uM | 0.14 °C
PDE4DIP (UniProt Q5VU43) | melting temperature shift | MBE1 concentration: 100 nM | 0.287 °C
